The results in this text go back to PubChem BioAssay AID192 (DTP/NCI, 2004).

The subject of the experiment is BDF1 mice, B16 melanoma ip, median survival T/C. In words: NCI In Vivo Anticancer Drug Screen. Data for tumor model B16 Melanoma (intraperitoneal) in B6D2F1 (BDF1) mice. To be noted: T/C endpoint: median survival time, higher T/C = longer survival. Put shortly: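 Antitumor activity is assessed in mice bearing a transplanted tumor, with survival or tumor size compared against vehicle-dosed controls and expressed as T/C.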

[1] abbreviates: dose: 25.0 mg/kg/injection, schedule: Q01DX009 (ip), vehicle: Klucel (hydroxypropylcellulose) (HPC).
Where [2] appears, read: dose: 100.0 mg/kg/injection, schedule: Q01DX009 (ip), vehicle: Klucel (hydroxypropylcellulose) (HPC).
Setting [3] is: dose: 200.0 mg/kg/injection, schedule: Q01DX009 (ip), vehicle: Klucel (hydroxypropylcellulose) (HPC).
[4] abbreviates: dose: 400.0 mg/kg/injection, schedule: Q01DX009 (ip), vehicle: Klucel (hydroxypropylcellulose) (HPC).
[5] abbreviates: dose: 50.0 mg/kg/injection, schedule: Q01DX009 (ip), vehicle: saline.
[6] abbreviates: dose: 100.0 mg/kg/injection, schedule: Q01DX009 (ip), vehicle: saline.
[7] abbreviates: dose: 200.0 mg/kg/injection, schedule: Q01DX009 (ip), vehicle: saline.
Where [8] appears, read: dose: 400.0 mg/kg/injection, schedule: Q01DX009 (ip), vehicle: saline.
Where [9] appears, read: dose: 0.05 mg/kg/injection, schedule: Q01DX009 (ip), vehicle: other.

The list is a part of this screen's results and no random one: it is rich in T/C values a quarter to a half above the control, in often repeated tests (any T/C) and in doses without a T/C. Other doses and runs of a compound stand elsewhere. T/C: endpoint of the treated group in % of that of the vehicle group. Some doses have a count of surviving animals in place of a T/C: the source files T/C as zero there, which appears to mark a toxic dose or a test without result, not a measured value. Some survivor counts are full or nearly so, which does not show that the dose was tolerated: the source hardly ever lists a survival T/C far under the control, and the zero likely stands for such cases as well. Survivors were counted at the toxicity check, usually on the fifth day, unless a day is given; later deaths do not show. Schedule codes are those of the source, taken here to give the interval after Q, in days (D) or hours (H), and the number of doses after X. Some entries were tested several times; the values are given in rising order. For survival time, the PubChem record calls one and a half times the control and up active, and a quarter to a half above the control has no call in these data; cut-offs in other NCI protocols can differ. Brackets with × count equal records among those shown.

Take `COc1cccc2c1C(=O)c1c(O)c3c(c(O)c1C2=O)C[C@@](O)(/C(C)=N/NC(=O)c1ccccc1)C[C@@H]3OC1CC(N)C(O)C(C)O1` (some centres not stated): the T/C (dose: 0.37 mg/kg/injection, schedule: Q01DX009 (ip), vehicle: saline) is 129 % of control; the T/C (dose: 1.0 mg/kg/injection, schedule: Q01DX009 (ip), vehicle: water) is 144 % of control; the T/C (dose: 3.0 mg/kg/injection, schedule: Q04DX003 (ip), vehicle: saline) was 141 % of control; the T/C (dose: 24.0 mg/kg/injection, schedule: Q04DX003 (ip), vehicle: saline) was 127 % of control. In addition, the survivor count was 8 of 9 and 10 of 10 (dose: 12.0 mg/kg/injection, schedule: Q01DX009 (ip), vehicle: saline); 7 of 10 and 10 of 10 (dose: 32.0 mg/kg/injection, schedule: Q01DX001 (ip), vehicle: water); 4 of 10, 5 of 10, 10 of 10 (dose: 64.0 mg/kg/injection, schedule: Q01DX001 (ip), vehicle: water); 0 of 10 and 3 of 10 (dose: 128.0 mg/kg/injection, schedule: Q01DX001 (ip), vehicle: water).
Turning to `CC(NC(=O)CN(C)C(=O)OCc1ccccc1)C(=O)O` (configuration not stated), the survivor count (dose: 400.0 mg/kg/injection, schedule: Q01DX009 (ip), vehicle: saline with Tween-80) is 10 of 10.
`Cc1ncc(CNC(=O)N(CCCl)N=O)c(N)n1`: the survivor count by setting is: under setting [1], 10 of 10; (dose: 25.0 mg/kg/injection, schedule: Q01DX009 (ip), vehicle: suspension in saline) 10 of 10; (dose: 50.0 mg/kg/injection, schedule: Q01DX009 (ip), vehicle: Klucel (hydroxypropylcellulose) (HPC)) 10 of 10; (dose: 50.0 mg/kg/injection, schedule: Q01DX009 (ip), vehicle: suspension in saline) 8 of 10; under setting [2], 10 of 10; under setting [3], 1 of 10. For the same compound, the survivor count under setting [4] is recorded as 0 of 10.
Take `COc1cc(/C=C2/c3cc(Cl)ccc3-c3c(Cl)cc(Cl)cc32)cc(OC)c1OC`: the survivor count (dose: 1.6 mg/kg/injection, schedule: Q01DX009 (ip), vehicle: saline with Tween-80) was 6 of 6; the survivor count under setting [5] is 6 of 6; the survivor count under setting [6] is 6 of 6; the survivor count under setting [7] is given as 6 of 6; the survivor count under setting [8] is 6 of 6.
Turning to `[N-]=[N+]=CC(=O)NCC(=O)NN`, the T/C (dose: 100.0 mg/kg/injection, schedule: Q01DX009 (ip), vehicle: other) is 127 % of control; the T/C (dose: 200.0 mg/kg/injection, schedule: Q01DX009 (ip), vehicle: other) is 126 and 133 % of control; the T/C (dose: 300.0 mg/kg/injection, schedule: Q01DX009 (ip), vehicle: other) was 126 % of control; the T/C (dose: 400.0 mg/kg/injection, schedule: Q01DX009 (ip), vehicle: other) was 136 and 138 % of control; the T/C (dose: 400.0 mg/kg/injection, schedule: Q02DX005 (ip), vehicle: other) was 133 % of control; the T/C (dose: 800.0 mg/kg/injection, schedule: Q02DX005 (ip), vehicle: other) is 130 % of control. Besides, the survivor count is 6 of 6 (dose: 500.0 mg/kg/injection, schedule: Q01DX009 (ip), vehicle: other) and 5 of 6 (dose: 600.0 mg/kg/injection, schedule: Q01DX009 (ip), vehicle: other).
For `O=C(/C(=C/c1ccccc1)CBr)c1ccccc1`, the survivor count runs as follows: (dose: 4.0 mg/kg/injection, schedule: Q01DX009 (ip), vehicle: saline with Tween-80) 6 of 6; (dose: 8.0 mg/kg/injection, schedule: Q01DX009 (ip), vehicle: saline with Tween-80) 4 of 6; (dose: 12.5 mg/kg/injection, schedule: Q01DX009 (ip), vehicle: gum acacia) 10 of 10; (dose: 16.0 mg/kg/injection, schedule: Q01DX009 (ip), vehicle: saline with Tween-80) 6 of 6; (dose: 25.0 mg/kg/injection, schedule: Q01DX009 (ip), vehicle: gum acacia) 10 of 10; (dose: 50.0 mg/kg/injection, schedule: Q01DX009 (ip), vehicle: gum acacia) 3 of 10. In addition, the survivor count by setting is: (dose: 100.0 mg/kg/injection, schedule: Q04DX003 (ip), vehicle: gum acacia) 1 of 10; (dose: 200.0 mg/kg/injection, schedule: Q04DX003 (ip), vehicle: gum acacia) 0 of 10; (dose: 400.0 mg/kg/injection, schedule: Q04DX003 (ip), vehicle: gum acacia) 0 of 10.
`C=CS(=O)(=O)c1ccccc1`: the survivor count (dose: 100.0 mg/kg/injection, schedule: Q01DX009 (ip), vehicle: saline with Tween-80) is on record as 9 of 10.
Turning to `O=C(C1CO1)C(Cl)(Cl)Cl` (configuration not stated), the survivor count is, setting by setting: under setting [5], 5 of 10; under setting [6], 1 of 10; under setting [7], 1 of 10.
In the case of `Nc1ncnc2c1ncn2Cc1ccccc1`, the survivor count was 6 of 6 (dose: 12.5 mg/kg/injection, schedule: Q01DX009 (ip), vehicle: Klucel (hydroxypropylcellulose) (HPC)) and 6 of 6 under setting [1].
Regarding `Cc1cccc(C)c1NS(=O)(=O)c1ccc(Cl)cc1`, the survivor count under setting [3] is on record as 9 of 10.
As to `c1cc2c(c(CC3CO3)c1CC1CO1)OCCOCCOCCOCCO2` (configuration not stated), the T/C (dose: 200.0 mg/kg/injection, schedule: Q01DX009 (ip), vehicle: saline + Tween-80 + alcohol) was 144 % of control. The survivor count (dose: 400.0 mg/kg/injection, schedule: Q01DX009 (ip), vehicle: saline + Tween-80 + alcohol) is recorded as 3 of 10.
In the case of `CC(C)(C)OC(=O)NC(CCC(N)=O)C(=O)O` (configuration not stated), the survivor count under setting [8] was 9 of 10.
As for `COc1ccccc1NC(=O)Nc1cc(C)ccc1C`, the survivor count is 10 of 10 under setting [2], 10 of 10 under setting [3] and 10 of 10 under setting [4].
For the compound `O=C(Nc1ccccc1Cl)N(Cc1ccccc1)c1ccccc1`, the survivor count runs as follows: under setting [2], 10 of 10; under setting [3], 10 of 10; under setting [4], 10 of 10.
With `N=[N+]=CC(=O)CCC(NC(=O)C(CCC(=O)C=[N+]=N)NC(=O)CCC(N)C(=O)O)C(=O)O` (configuration not stated), the T/C runs as follows: under setting [9], 93 and 106 % of control (2×); (dose: 0.1 mg/kg/injection, schedule: Q01DX009 (ip), vehicle: other) 88, 100, 106 % of control (2×); (dose: 0.2 mg/kg/injection, schedule: Q01DX009 (ip), vehicle: saline) 125 % of control. The survivor count reads like this: under setting [9], 6 of 6; (dose: 0.1 mg/kg/injection, schedule: Q01DX009 (ip), vehicle: Klucel (hydroxypropylcellulose) (HPC)) 10 of 10; (dose: 0.2 mg/kg/injection, schedule: Q01DX009 (ip), vehicle: other) 6 of 6; (dose: 0.4 mg/kg/injection, schedule: Q01DX009 (ip), vehicle: other) 6 of 6; (dose: 0.4 mg/kg/injection, schedule: Q01DX009 (ip), vehicle: saline) 6 of 6; (dose: 0.5 mg/kg/injection, schedule: Q01DX009 (ip), vehicle: other) 5 of 6 and 6 of 6. Besides, the survivor count is listed as 6 of 6 (dose: 0.6 mg/kg/injection, schedule: Q01DX009 (ip), vehicle: other); 6 of 6 (dose: 0.8 mg/kg/injection, schedule: Q01DX009 (ip), vehicle: other); 6 of 6 (dose: 20.0 mg/kg/injection, schedule: Q04DX003 (ip), vehicle: other); 6 of 6 (dose: 40.0 mg/kg/injection, schedule: Q04DX003 (ip), vehicle: other).
